According to patent publication US20250213694A1 (SHANGHAI SIMNOVA BIOTECHNOLOGY, published 2025):
No constants are given. Whether binding was seen depends on the method and setting. A result given as binding can be weak or reduced; the word gives no strength.

Biological target: monkey BCMA protein (monkey)
Experiment: phage library panning and clone identification

B1: VHH2 (VHH)
VHH: QVQLVESGGGLVQSRGSLRLSCAASESISSIHIMAWYRRAPGKQRELVAGIRNDGSTVYADSAKGRFTISRDNAKNTVYLQMNSLKPEDTAVYYCNADQGFGSYSEWERRSRWGQGTEVTVSS
In the case of B1, the binding is reported as “binds”.
